Results are given in words; binding and its absence hold for the method and conditions named. Some binding calls cover weakened binding; strength is not graded here.
Key:
[1] = target: gD-tagged full-length TIGIT expressed on stably transfected CHO cells (human); test: flow cytometry, biotinylated PVR-Fc on CHO-TIGIT, without antibody D171
[2] = target: gD-tagged full-length TIGIT expressed on stably transfected CHO cells (human); test: flow cytometry, biotinylated Fc ligand + streptavidin-PE (y: Ligand Binding PE) vs receptor expression (x) on CHO transfectants

The chains behind the UniProt entries cited, without tags or fusion partners. Residues count along the entry.
UniProt P15151, residues 21-343: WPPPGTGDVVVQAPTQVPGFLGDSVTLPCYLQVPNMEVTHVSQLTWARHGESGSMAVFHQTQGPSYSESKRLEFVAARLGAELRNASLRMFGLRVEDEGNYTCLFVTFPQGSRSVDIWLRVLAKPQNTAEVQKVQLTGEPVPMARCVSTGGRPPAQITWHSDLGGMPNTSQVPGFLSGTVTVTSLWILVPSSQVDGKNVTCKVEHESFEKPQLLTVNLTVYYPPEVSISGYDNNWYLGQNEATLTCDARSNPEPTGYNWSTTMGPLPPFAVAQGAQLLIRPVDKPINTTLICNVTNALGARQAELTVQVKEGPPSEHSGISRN

PVR-Fc fusion protein (from UniProt P15151 21-343)
binding [1]: binds | binding [2]: binds
